These are yes or no findings as the source states them, for the method shown. In cells and extracts the contact can be indirect. A result given as binding can be weak or reduced; the word gives no strength. Where a sequence is shown, tags or fusion partners need not be part of it.

In the experiment the target is DS1-YFP^N fusion protein (rice (Oryza sativa)). In words: split reporter; BiFC: DS1-YFP^N and OsARF11-YFP^C transiently expressed in tobacco (Nicotiana benthamiana); YFP fluorescence in the nucleus.

B1: OsARF11-YFP^C fusion protein (protein, UniProt Q8S983 1-955)
chain: MASSQEKAKTGVLRNAAALLDEMQLMGETQGAKKVINSELWHACAGPLVCLPQRGSLVYYFPQGHSEQVAATTRKIPNSRIPNYPNLPSQLLCQVHNITLHADKDTDEVYAQMTLQPVNSETDVFPIPTLGAYTKSKHPTEYFCKNLTASDTSTHGGFSVPRRAAEKLFPQLDYSMQPPNQELIVRDLHDNMWTFRHIYRGQPKRHLLTTGWSLFVGAKRLKAGDSVLFIRDEKSQLLLGVRRATRQQTMLSSSVLSTDSMHIGVLAAAAHAASSGSSFTIYYNPRTSPSPFVIPVARYNKATYMQPSVGMRFAMMFETEESSKRRYTGTVVGISDYDPMRWPNSKWRNLQVEWDEHGYGERPERVSIWDIETPENTLVFPSSTLNSKRQCLPGYGVSVPGMEIGSANMSSFPRAQGNPYGSLQHIPAVGSELAIMLLNQSGQTLGSPLSFHQSSYSSIIQNVKQNYIPPLTVSTSACLTKQESLPSDDAQHQFHMANMQNGDLEGSEVQPVIDSISESKLNATSRDPRNTDSYTSRSTSEQNSKGEPRGKTRRSKKGLPHKTVSEKSDLSSAPSWICDNQQVGLESKLVGCDEQVNCGNIEDSSGALTQGNFVGQPHGHQVEQKGVLSPPKVESSKSPDGGKSVNSFPNQGCFSQFIDGLDWMTQPSYYQDSNVIQPAGVSENIFSSSADIPPSMIADTMETFQASCLSDCLPNSIQEFISSPDLNSLTFLSPDMQNLEVQLQHDGSNLPSTSNSFVQMSFSEESASQSANLSGLHMESTHRSINTTSCSQPMSTGGFDAGMYSKLPRLKESQILSLPEIHTNSMGTSACSMDATEYSLDRSAKPMKPPVRTYTKVQKQGSVGRSIDVTGFRNYHELRSAIACMFGLQGKLEHPGSSEWKLVYVDYENDVLLVGDDPWEEFINCVRCIRILSPSEVQQMSENGMHVLNDCIQAA
Regarding B1, the binding result is “binds”.

These data come from PMC6082143.
